Data from PubChem BioAssay AID624297 (National Center for Advancing Translational Sciences (NCATS), 2012).
Among all 340,000 compounds or so, about 6,200 (1.8%) were called active. Inconclusive results, whose numbers are uncertain, are shown with a selection of clear calls. Calls follow the shape of the dose curve; as a rule, active = well fitted activation curve with a large enough effect; inconclusive = small, poorly fitted or top-dose-only effect; inactive = no such curve, though single readings can be large or run the other way. A potency beside an inconclusive call is a rough fit, not a confirmed value.

assay: A quantitative high throughput screen for small molecules that induce DNA re-replication in SW480 colon adenocarcinoma cells.; also: nearly all actives have a fitted effect of over 55% in size; as to re-replication activation: % of control where 0% means no effect; details: Hoechst DNA content imaging, 48 h; re-replication activation: at 46.1 µM (top of the series) unless noted
In short: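 Image-based DNA-content assay: after two days of treatment, nuclei were labelled with the DNA dye Hoechst and imaged, and hits were compounds raising the count of nuclei showing high fluorescence intensity.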
Potency is read from the fitted curve at half-maximal effect.

| Structure (SMILES) | Potency | re-replication activation |
| --- | --- | --- |
| Cc1cc(C)nc(NS(=O)(=O)c2ccc(NC(=O)c3ccc4c(c3)OCO4)cc2)n1 | inconclusive: 1.64 µM [activator, partial curve] | – |
| COc1cc(NS(C)(=O)=O)c(OC)cc1NC(=O)c1cccc(F)c1 | inconclusive: 18.4 µM [activator, partial curve, poor fit] | – |
| CC(=O)Oc1ccc2c(c1)O/C(=C\c1ccncc1)C2=O | inconclusive: 20.6 µM [activator, partial curve, poor fit] | – |
| C=CCOc1nc2c(c(=O)n(C)c(=O)n2C)n1Cc1ccccc1 | inconclusive: 29.1 µM [activator, partial curve, poor fit] | – |
| CCNC(=S)Nc1ccc(N(c2ccccc2)C(C)C)cc1 | – | inactive: 9.29% |
| COc1ccc(-c2nnc(NC(=O)C3CC3)o2)cc1 | – | inactive: -13.8% |
| N#Cc1ccc(COC(=O)c2cc(=O)c3ccccc3o2)cc1 | inconclusive: 29.1 µM [activator, partial curve, poor fit] | – |
| O=C(Nc1ccc(S(=O)(=O)NCC2CCCO2)cc1)c1cnccn1 (stereo not given) | – | inactive: -19.3% |
| COc1cccc(C(=O)NC(=O)Nc2nc(C)cc(C(F)(F)F)n2)c1 | – | inactive: 22.9% |
| COc1ccccc1CNC(=O)C1CCCN(c2cnccn2)C1 (stereo not given) | inconclusive: 0.794 µM [activator, partial curve, poor fit] | – |
| COc1ccc(C2CC(c3ccc(Br)cc3)=NN2C(=O)CSC2=NCCS2)cc1 (stereo not given) | inconclusive: 20.6 µM [activator, single point] | – |
| NS(=O)(=O)c1ccc(NC(=O)COc2ccc(S(=O)(=O)N3CCCC3)cc2)cc1 | – | inactive: -3.84% |
| Cc1ccc(NC(=O)COC(=O)c2cc(Cl)cc(Cl)c2)c(Br)c1 | inconclusive: 0.0184 µM [activator, full curve, poor fit] | – |
| CCC1(C)Cc2ccccc2-c2[nH]c(=S)[nH]c(=O)c21 (stereo not given) | – | inactive: -7.38% |
| CCOc1ccc(NC(=O)N(Cc2ccc(C)cc2)Cc2ccccn2)cc1 | – | inactive: -15.9% |
| CCn1nc(NC(=O)Cc2ccc(OC)cc2)c2cc3cc(C)ccc3nc21 | active: 7.31 µM | – |
| Fc1ccc(C2CC(c3ccco3)=NN2c2ccccc2)cc1 (stereo not given) | active: 20.6 µM | – |
| O=c1c2ccccc2c(-c2ccc(O)cc2)nn1-c1cccc(C(F)(F)F)c1 | inconclusive: 29.1 µM [activator, partial curve, poor fit] | – |
| Cc1ccc(NC(=O)CN(C)C(=O)CSc2ncc(C(F)(F)F)cc2Cl)cc1 | inconclusive: 6.51 µM [activator, single point] | – |
| COc1cccc(NC(=O)CN(C)C(=O)c2cccnc2Nc2cccc(C(F)(F)F)c2)c1 | inconclusive: 29.1 µM [activator, single point] | – |
| O=C(OCC#CCSc1nnc(-c2cccc3ccccc23)o1)c1cccs1 | inconclusive: 16.4 µM [activator, single point] | – |
| CCOC(=O)N1CCC(N(CCN(C)C)C(=S)Nc2ccccc2Cl)CC1 | – | inactive: -0.298% |
| COc1ccc(NC(=O)COc2ccc3c(c2)OCO3)cc1 | inconclusive: 0.92 µM [activator, full curve, poor fit] | – |
| COc1ccc2sc(-c3ccc(N(C)C)cc3)c(-c3cnc(OC)nc3)c2c1 | – | inactive: -3.42% [at 9.22 µM] |

Quoted at random: 5 records from the list, in no set order.

| Structure (SMILES) | Potency | re-replication activation |
| --- | --- | --- |
| Cc1ccc(NC(=O)CN(C)C(=O)CSc2ncc(C(F)(F)F)cc2Cl)cc1 | inconclusive: 6.51 µM [activator, single point] | – |
| COc1ccc(C2CC(c3ccc(Br)cc3)=NN2C(=O)CSC2=NCCS2)cc1 (stereo not given) | inconclusive: 20.6 µM [activator, single point] | – |
| COc1ccccc1CNC(=O)C1CCCN(c2cnccn2)C1 (stereo not given) | inconclusive: 0.794 µM [activator, partial curve, poor fit] | – |
| CCOC(=O)N1CCC(N(CCN(C)C)C(=S)Nc2ccccc2Cl)CC1 | – | inactive: -0.298% |
| COc1cccc(C(=O)NC(=O)Nc2nc(C)cc(C(F)(F)F)n2)c1 | – | inactive: 22.9% |

(next part)

| Structure (SMILES) | Potency | re-replication activation |
| --- | --- | --- |
| COc1ccccc1NC(=O)CNC(=O)Cn1cnc2sc(C)c(C)c2c1=O | inconclusive: 23.1 µM [activator, single point] | – |
| COc1ccc(-c2cnn3c(N)c(S(=O)(=O)C(C)(C)C)cnc23)cc1 | inconclusive: 20.6 µM [activator, partial curve, poor fit] | – |
| O=C(CCC1CCCCC1)NC1CCCCC1 | – | inactive: -3.16% |
| O=C(NCc1ccccc1Cl)C1CCN(C(=O)c2ccco2)CC1 | – | inactive: -0.448% |
| O=C(/C=C/NNC(=O)c1ccccc1)c1ccc([N+](=O)[O-])cc1 | inconclusive: 2.91 µM [activator, partial curve, poor fit] | – |
| COc1cccc(CNC(=O)COc2cc3c(c4oc(=O)cc(C)c24)CCC(C)(C)O3)c1 | – | inactive: -5.12% |
| COc1ccc(N2CC(C(=O)Nc3ccc(S(=O)(=O)Nc4nccs4)cc3)CC2=O)cc1 (stereo not given) | – | inactive: 0.846% |
| O=c1cc(CN2CCN(c3ccccc3)CC2)c2cc(O)c(-c3ccccc3)cc2o1 | inconclusive: 29.1 µM [activator, single point] | – |
| O=S1(=O)CC2N=C(N(Cc3c(F)cccc3Cl)c3ccccc3F)SC2C1 (stereo not given) | inconclusive: 25.9 µM [activator, partial curve, poor fit] | – |
| O=C(Nc1nccs1)C1CCCN1/C=C/C(=O)C(F)(F)F (stereo not given) | – | inactive: -2.56% |
| CCc1ccc(C(O)(C(C)C)C(CN2CCOCC2)c2ccccc2)cc1 (stereo not given) | inconclusive: 6.51 µM [activator, full curve] | – |
| CCOc1ccc2nc(N(CCCN(C)C)C(=O)c3ccc(S(=O)(=O)N4CCc5ccccc5C4)cc3)sc2c1 | inconclusive: 29.1 µM [activator, single point] | – |
| NNc1nccc(Nc2ccccc2C(=O)O)n1 | – | inactive: -0.939% |
| COc1cc2c(C(=O)O)c(C)n(-c3ccccc3)c2c2ccccc12 | inconclusive: 29.1 µM [activator, single point] | – |
| O=C(NCCc1ccc(C(F)(F)F)cc1)C1CC(=O)N(c2ccc3c(c2)OCCO3)C1 (stereo not given) | inconclusive: 18.4 µM [activator, partial curve, poor fit] | – |
| CC(C)c1cc(=O)[nH]c(N2CCN(Cc3ccc4c(c3)OCO4)CC2)n1 | inconclusive: 20.6 µM [activator, partial curve, poor fit] | – |
| N#C/C(=C(/O)CN1C(=O)c2ccccc2C1=O)c1nc2ccccc2[nH]1 | – | inactive: -2.04% |
| COc1ccccc1CNCC(O)Cn1c2ccccc2c2ccccc21 (stereo not given) | inconclusive: 20.6 µM [activator, single point] | – |
| O=Cc1cc2ccccc2nc1SCc1ccc(Cl)cc1 | inconclusive: 9.2 µM [activator, partial curve, poor fit] | – |
| CCc1sc(C(=O)N2CCc3ccccc32)cc1C | inconclusive: 2.06 µM [activator, partial curve, poor fit] | – |
| Cn1cccc1C(=O)NC(=O)CSc1nc2ccccc2s1 | inconclusive: 20.6 µM [activator, partial curve, poor fit] | – |
| CC(=O)Nc1ccc(S(=O)(=O)Nc2ccc(S(=O)(=O)Nc3nc(C)cc(C)n3)cc2)cc1 | – | inactive: -29.8% |
| O=C(CCSc1nc(-c2ccc3c(c2)OCO3)cc(C(F)(F)F)n1)NCc1ccccc1 | – | inactive: 4.24% |
| CCc1noc(C)c1C(=O)Nc1ccc(-c2nnc3n2CCCCC3)cc1 | inconclusive: 0.731 µM [activator, full curve, poor fit] | – |

| Structure (SMILES) | Potency | re-replication activation |
| --- | --- | --- |
| O=[N+]([O-])c1cc([N+](=O)[O-])c2cc3ccccc3nc2c1 | inconclusive: 1.03 µM [activator, full curve, poor fit] | – |
| COCCNC(=O)c1ccccc1N(Cc1ccccc1)S(=O)(=O)c1ccccc1 | inconclusive: 25.9 µM [activator, single point] | – |
| CN(C)CCCNC(=O)c1cc(Br)ccc1O | inconclusive: 29.1 µM [activator, single point] | – |
| CN(C)c1ccc(N/C=C/C(=O)C(C)(C)C)cc1 | inconclusive: 31.6 µM [activator, single point] | – |
| CCCSc1oc(-c2ccco2)nc1S(=O)(=O)c1ccc(C)cc1 | inconclusive: 29.1 µM [activator, single point] | – |
| CC(C)=CCc1cc([C@@H]2CC(=O)c3ccc(O)c(CC=C(C)C)c3O2)ccc1O | inconclusive: 13 µM [activator, single point] | – |
| Cc1ccc(N(Cc2ccc([N+](=O)[O-])cc2)C(=O)c2ccco2)cc1 | – | inactive: 0.367% |
| O=C(CSc1ccc2ccccc2c1Br)Nc1cccc(S(=O)(=O)NC2=NCCCCC2)c1 | – | inactive: 0.804% |
| CCOC(=O)c1cc2c(=O)n3ccccc3nc2n(C(C)C)c1=NC(=O)c1ccco1 | active: 7.31 µM | – |
| O=S(=O)(N/N=C/c1cn(Cc2ccccc2)c2ccccc12)c1ccccc1 | – | inactive: 18.4% |
| CN(C)CCCNC(=O)/C(=C\C=C\c1ccccc1)NC(=O)c1ccc([N+](=O)[O-])cc1 | inconclusive: 23.1 µM [activator, single point] | – |
| Cc1cc(-c2n[nH]c(=S)n2/N=C/c2ccc(Br)s2)n[nH]1 | inconclusive: 6.51 µM [activator, single point] | – |
| CS(=O)(=O)N1CCC(C(=O)Nc2ccccc2Sc2ccccc2)CC1 | – | inactive: -5.05% |
| NC(=O)c1c(NC(=O)COC(=O)c2ccc(O)c(Cl)c2)sc2c1CCCC2 | inconclusive: 29.1 µM [activator, single point] | – |
| CC(C)(C)CC(=O)Nc1ccc(Nc2ccccc2)cc1 | – | inactive: -1.96% |
| COc1ccc(/C=C(/NC(=O)c2ccco2)C(=O)N2CCCCC2)cc1 | – | inactive: -10.7% |
| Cc1nn(C)c(C(=O)N/N=C/c2cc3c(cc2Br)OCO3)c1Br | – | inactive: -699% |
| O=C(c1cnn2c1NC(c1ccc(Br)cc1)CC2C(F)(F)F)N1CCN2CCCC2C1 (stereo not given) | inconclusive: 23.1 µM [activator, single point] | – |
| O=C(c1ccc2c(c1)[nH]c(=S)n1c3ccccc3nc21)N1CCN(c2cccc(Cl)c2)CC1 | inconclusive: 29.1 µM [activator, single point] | – |
| O=C(/C=C/c1ccc2c(c1)OCCO2)c1ccccc1 | inconclusive: 23.1 µM [activator, single point] | – |
| CCN(C(=O)COC(=O)c1ccc(Cl)c(N)c1)C1CCS(=O)(=O)C1 (stereo not given) | – | inactive: -72.2% |
| O=c1[nH]c(C2CCN(S(=O)(=O)/C=C/c3ccccc3)CC2)nc2c1nnn2Cc1ccc(F)cc1 | inconclusive: 20.6 µM [activator, single point] | – |
